Source: the supplement of paper PMC6078165
Values are relative to the signal before dosing, not to a vehicle control; the signal also falls without drug.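 Labels refer to human fibroblasts, largely primary: uterine (C12385, HUF), lung (H6013), bone (Hs27A), adrenal (HADF), skin (WS1), plus mammary HMF and breast cancer-associated Hs343T. Cancer lines are basal-like or mesenchymal-like triple-negative breast cancer. The paper counts as hits responses shifting over 3x the replicate standard deviation. The tissue of the other fibroblasts is not given here.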

Test system: MDAMB231
Assay: relative JC-1 red fluorescence (viability) vs pre-drug, coculture with fibroblast (fraction); higher = more viable cancer cells
Experimental: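 JC-1 labelled TNBC cells cocultured 1:1 (1,500 cells each) with CellTrace Violet stained primary or stromal fibroblasts in 384-well plates in FluoroBrite medium, treated with one of 42 anticancer drugs at 0.1, 1, 10 or 100 uM. JC-1 red fluorescence (mitochondrial integrity in cancer cells only) was read by plate reader every 8 h for 72 h. Values are normalised to each well's pre-drug value. The stock of one drug was tenfold lower, so its dose labels may be too high.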

CC(=O)O[C@@]12CO[C@@H]1C[C@H](O)[C@@]1(C)C(=O)[C@H](O)C3=C(C)[C@@H](OC(=O)[C@H](O)[C@@H](NC(=O)OC(C)(C)C)c4ccccc4)C[C@@](O)([C@@H](OC(=O)c4ccccc4)[C@H]21)C3(C)C [Docetaxel]
relative JC-1 red fluorescence
Conditions | 8 h | 16 h | 24 h | 32 h | 40 h | 48 h | 56 h | 64 h | 72 h
0.1 µM, coculture fibroblast: C12385 | 0.783 | 0.711 | 0.647 | 0.582 | 0.516 | 0.484 | 0.449 | 0.464 | 0.464
0.1 µM, coculture fibroblast: H6013 | 0.8865 | 0.813 | 0.775 | 0.734 | 0.673 | 0.658 | 0.646 | 0.63 | 0.607
0.1 µM, coculture fibroblast: H6019 | 0.746 | 0.68 | 0.642 | 0.578 | 0.542 | 0.541 | 0.518 | 0.535 | 0.529
0.1 µM, coculture fibroblast: H6076 | 0.852 | 0.77 | 0.695 | 0.668 | 0.627 | 0.599 | 0.587 | 0.583 | 0.598
0.1 µM, coculture fibroblast: H6231 | 0.911 | 0.794 | 0.705 | 0.656 | 0.606 | 0.5694 | 0.526 | 0.512 | 0.495
0.1 µM, coculture fibroblast: HADF | 0.875 | 0.8302 | 0.78 | 0.722 | 0.671 | 0.635 | 0.597 | 0.585 | 0.551
0.1 µM, coculture fibroblast: HCFa | 0.873 | 0.814 | 0.762 | 0.696 | 0.643 | 0.595 | 0.552 | 0.518 | 0.477
0.1 µM, coculture fibroblast: HCPF | 0.889 | 0.78 | 0.695 | 0.658 | 0.599 | 0.56 | 0.5258 | 0.499 | 0.4898
0.1 µM, coculture fibroblast: HHSteC | 0.9102 | 0.888 | 0.829 | 0.738 | 0.673 | 0.645 | 0.598 | 0.584 | 0.557
0.1 µM, coculture fibroblast: HMF | 0.8943 | 0.792 | 0.711 | 0.662 | 0.595 | 0.556 | 0.505 | 0.497 | 0.491
0.1 µM, coculture fibroblast: HPFa | 0.9629 | 0.8906 | 0.818 | 0.757 | 0.734 | 0.702 | 0.653 | 0.632 | 0.5853
0.1 µM, coculture fibroblast: HUF | 0.857 | 0.709 | 0.735 | 0.612 | 0.551 | 0.544 | 0.504 | 0.526 | 0.525
0.1 µM, coculture fibroblast: Hs5 | 0.867 | 0.797 | 0.7352 | 0.6879 | 0.6486 | 0.601 | 0.581 | 0.566 | 0.548
0.1 µM, coculture fibroblast: Hs27A | 0.8947 | 0.82 | 0.7766 | 0.737 | 0.679 | 0.629 | 0.621 | 0.604 | 0.569
0.1 µM, coculture fibroblast: Hs343T | 0.8852 | 0.75 | 0.654 | 0.605 | 0.537 | 0.49 | 0.439 | 0.428 | 0.41602
0.1 µM, coculture fibroblast: WS1 | 0.751 | 0.663 | 0.599 | 0.517 | 0.461 | 0.438 | 0.402 | 0.41 | 0.409
1 µM, coculture fibroblast: C12385 | 0.8 | 0.776 | 0.728 | 0.678 | 0.618 | 0.604 | 0.572 | 0.597 | 0.606
1 µM, coculture fibroblast: H6013 | 0.887 | 0.836 | 0.7883 | 0.763 | 0.694 | 0.704 | 0.684 | 0.694 | 0.675
1 µM, coculture fibroblast: H6019 | 0.734 | 0.62 | 0.634 | 0.557 | 0.538 | 0.546 | 0.531 | 0.57 | 0.55
1 µM, coculture fibroblast: H6076 | 0.8657 | 0.752 | 0.672 | 0.652 | 0.6127 | 0.585 | 0.5704 | 0.578 | 0.5856
1 µM, coculture fibroblast: H6231 | 0.9139 | 0.829 | 0.753 | 0.716 | 0.658 | 0.64 | 0.603 | 0.595 | 0.577
1 µM, coculture fibroblast: HADF | 0.868 | 0.829 | 0.746 | 0.699 | 0.647 | 0.637 | 0.622 | 0.615 | 0.592
1 µM, coculture fibroblast: HCFa | 0.9 | 0.8235 | 0.782 | 0.728 | 0.667 | 0.638 | 0.594 | 0.566 | 0.527
1 µM, coculture fibroblast: HCPF | 0.906 | 0.854 | 0.763 | 0.759 | 0.729 | 0.698 | 0.693 | 0.671 | 0.668
1 µM, coculture fibroblast: HHSteC | 0.9238 | 0.869 | 0.816 | 0.748 | 0.68 | 0.6507 | 0.6043 | 0.593 | 0.5485
1 µM, coculture fibroblast: HMF | 0.871 | 0.7686 | 0.684 | 0.647 | 0.6 | 0.571 | 0.529 | 0.522 | 0.5029
1 µM, coculture fibroblast: HPFa | 0.9531 | 0.9112 | 0.8534 | 0.77118 | 0.74738 | 0.7218 | 0.665 | 0.64875 | 0.6102
1 µM, coculture fibroblast: HUF | 0.856 | 0.761 | 0.739 | 0.618 | 0.562 | 0.545 | 0.51 | 0.517 | 0.497
1 µM, coculture fibroblast: Hs5 | 0.849 | 0.774 | 0.724 | 0.688 | 0.65 | 0.6057 | 0.588 | 0.574 | 0.571
1 µM, coculture fibroblast: Hs27A | 0.904 | 0.8696 | 0.82096 | 0.756 | 0.7207 | 0.674 | 0.671 | 0.657 | 0.626
1 µM, coculture fibroblast: Hs343T | 0.888 | 0.767 | 0.653 | 0.591 | 0.515 | 0.465 | 0.413 | 0.387 | 0.371
1 µM, coculture fibroblast: WS1 | 0.732 | 0.632 | 0.592 | 0.52 | 0.477 | 0.469 | 0.441 | 0.46 | 0.455
